Experimental data from PMC9973013.
The exact form of at least one protein or probe is not confirmed.

Tested on: RisR (Strep-II tag removed by enterokinase)
Test: DNase I footprinting
Settings: holo-RisR 1 uM, ~10 nM DNA, anaerobic, tag cleaved, 25 mM potassium phosphate, 30 mM KCl, 5 mM potassium glutamate, 100 ug/mL BSA, 1 mM DTT, 37 C, 25 min, pH not stated, recombinant protein, protein details: N-terminal Strep-II tag removed with enterokinase, label: 32P (alpha-32P dGTP, 3' end fill-in), probe letters rebuilt from the primers and the genome, part of a longer molecule

Sequence	binding result
GCGGCCGGTACCCCGGTCGCCTGCCCCTCCGGCGAGGGCGCGGCGGGCGCGTTCTTCTTCTCGCAGGCCACCACGGCCAGGGCCAGGGTCGCGAGCAGCATCAGGGGACGGCGCATCGGCAAGGTTCCTCCGGGGGACGGTGGTGTCACCCTATCCCTCTCCCCCCCGCCCTCCAACCAGCGGCGCTTCAGGGAGGGATTCAAATTGCAATGTGGACTGAAACGGTCCTGATTACATATGAGGTCCTCCGTGGCCCGAGTTTTTTCGGCGCCTGGACCCAGAGAGGAGACACCCGCACCC (double strand) [suf promoter fragment (pPK14641, BamHI-HindIII)]	binds
GGCCAGCGAGGGGCCTGCCGGGAAATCAAGCGGTTGGCCGGAGGGTGTGCGCCATTCTGGGGCGCCTCGTCCCAGGACGGCGCGCCCGGACTGATCCACGATGGCGCGGCGTTCACTTAAGACGTCCTATTGGGAGCACGCACCCACACCCGCGGCGCGCCTGATGTTCGCTTGACCCGAAGGCGCCCCTTTTTATATTTGACCAGTCCGGTCCACATTCAGGTGTGACGGTGTAGGTTCCCCTGCGGCAAAGGCGCTCCGAGGCGCCGGTCGACGTCCCCTCCAGGAAGGTGTTGGAAGCA (double strand) [isc promoter fragment (pPK14640, BamHI-HindIII)]	binds
